# Reference: the supplement of paper PMC12819154, “High-throughput peptide-centric local stability assay extends protein–ligand identification to membrane proteins, tissues and bacteria” (Nature Structural & Molecular Biology, 2025)
# Chains of the proteins cited; added tags and fusions are not shown. Lines headed by an entry give the natural chain unless they say otherwise; changes in a name come on top.
# UniProt Q9EQQ9: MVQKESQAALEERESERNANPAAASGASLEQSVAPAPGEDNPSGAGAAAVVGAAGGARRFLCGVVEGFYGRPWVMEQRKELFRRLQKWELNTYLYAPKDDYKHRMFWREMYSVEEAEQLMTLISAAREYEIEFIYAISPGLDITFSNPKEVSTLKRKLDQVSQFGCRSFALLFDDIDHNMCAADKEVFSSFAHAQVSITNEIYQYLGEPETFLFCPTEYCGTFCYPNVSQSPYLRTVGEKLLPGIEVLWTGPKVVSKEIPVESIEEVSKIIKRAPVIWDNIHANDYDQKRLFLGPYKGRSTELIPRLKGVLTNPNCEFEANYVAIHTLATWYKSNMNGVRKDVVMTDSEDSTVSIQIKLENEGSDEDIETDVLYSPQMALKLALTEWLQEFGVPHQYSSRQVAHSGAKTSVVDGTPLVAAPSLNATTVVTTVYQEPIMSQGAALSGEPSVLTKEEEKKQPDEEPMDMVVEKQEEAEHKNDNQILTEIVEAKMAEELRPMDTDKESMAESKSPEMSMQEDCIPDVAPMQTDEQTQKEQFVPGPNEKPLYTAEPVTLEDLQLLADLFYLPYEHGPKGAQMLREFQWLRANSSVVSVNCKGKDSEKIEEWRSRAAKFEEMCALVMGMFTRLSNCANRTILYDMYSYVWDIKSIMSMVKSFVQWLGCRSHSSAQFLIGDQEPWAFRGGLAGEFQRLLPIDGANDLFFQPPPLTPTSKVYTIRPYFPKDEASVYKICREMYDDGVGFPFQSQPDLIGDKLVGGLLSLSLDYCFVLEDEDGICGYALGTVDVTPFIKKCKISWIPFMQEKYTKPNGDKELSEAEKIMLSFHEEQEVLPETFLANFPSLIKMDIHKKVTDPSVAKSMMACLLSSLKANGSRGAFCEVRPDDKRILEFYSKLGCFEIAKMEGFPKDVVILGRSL
# UniProt Q9EPT5, whole entry: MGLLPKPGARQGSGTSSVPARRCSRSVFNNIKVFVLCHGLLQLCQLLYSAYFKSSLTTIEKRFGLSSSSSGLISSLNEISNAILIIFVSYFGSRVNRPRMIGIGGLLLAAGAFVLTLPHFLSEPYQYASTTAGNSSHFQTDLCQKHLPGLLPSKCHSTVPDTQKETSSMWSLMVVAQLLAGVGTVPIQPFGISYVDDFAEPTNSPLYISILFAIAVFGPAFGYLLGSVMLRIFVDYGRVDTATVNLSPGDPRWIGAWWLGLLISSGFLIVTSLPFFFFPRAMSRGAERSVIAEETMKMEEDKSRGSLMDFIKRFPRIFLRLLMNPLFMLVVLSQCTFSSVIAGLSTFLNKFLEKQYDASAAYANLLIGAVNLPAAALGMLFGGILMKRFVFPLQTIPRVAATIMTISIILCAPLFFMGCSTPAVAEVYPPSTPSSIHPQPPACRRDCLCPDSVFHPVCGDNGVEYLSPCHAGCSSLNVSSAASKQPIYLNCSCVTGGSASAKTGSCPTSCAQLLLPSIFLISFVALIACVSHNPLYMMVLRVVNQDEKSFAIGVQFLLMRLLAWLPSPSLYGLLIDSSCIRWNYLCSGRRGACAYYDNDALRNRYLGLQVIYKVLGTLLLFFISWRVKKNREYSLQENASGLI
# UniProt Q9DCM0: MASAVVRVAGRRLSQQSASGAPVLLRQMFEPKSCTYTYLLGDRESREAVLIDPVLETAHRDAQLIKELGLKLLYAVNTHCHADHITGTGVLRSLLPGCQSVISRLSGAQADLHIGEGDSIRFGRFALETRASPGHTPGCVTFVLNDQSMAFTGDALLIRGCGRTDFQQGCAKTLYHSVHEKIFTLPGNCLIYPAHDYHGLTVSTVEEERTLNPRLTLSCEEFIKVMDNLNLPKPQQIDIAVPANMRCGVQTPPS
# UniProt Q9JIM1: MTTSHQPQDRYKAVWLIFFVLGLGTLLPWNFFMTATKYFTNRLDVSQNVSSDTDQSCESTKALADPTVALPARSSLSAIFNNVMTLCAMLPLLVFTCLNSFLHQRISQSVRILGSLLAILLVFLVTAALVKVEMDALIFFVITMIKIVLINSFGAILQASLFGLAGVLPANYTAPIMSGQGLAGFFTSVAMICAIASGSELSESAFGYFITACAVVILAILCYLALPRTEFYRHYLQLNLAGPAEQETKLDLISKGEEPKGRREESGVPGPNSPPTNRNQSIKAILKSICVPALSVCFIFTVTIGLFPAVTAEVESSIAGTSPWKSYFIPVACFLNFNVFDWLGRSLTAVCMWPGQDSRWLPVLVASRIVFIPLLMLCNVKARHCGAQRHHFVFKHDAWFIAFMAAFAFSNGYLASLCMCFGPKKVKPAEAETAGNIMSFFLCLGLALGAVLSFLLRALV
# UniProt Q9NYQ2: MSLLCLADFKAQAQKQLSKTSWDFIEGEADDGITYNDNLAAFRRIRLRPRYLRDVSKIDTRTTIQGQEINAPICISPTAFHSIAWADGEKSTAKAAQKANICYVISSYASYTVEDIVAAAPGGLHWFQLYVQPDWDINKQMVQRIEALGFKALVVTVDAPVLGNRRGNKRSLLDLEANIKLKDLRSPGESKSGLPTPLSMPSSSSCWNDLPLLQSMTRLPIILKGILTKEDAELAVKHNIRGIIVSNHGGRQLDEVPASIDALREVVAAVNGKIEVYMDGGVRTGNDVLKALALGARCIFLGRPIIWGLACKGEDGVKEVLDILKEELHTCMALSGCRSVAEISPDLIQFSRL
# UniProt Q9ER00: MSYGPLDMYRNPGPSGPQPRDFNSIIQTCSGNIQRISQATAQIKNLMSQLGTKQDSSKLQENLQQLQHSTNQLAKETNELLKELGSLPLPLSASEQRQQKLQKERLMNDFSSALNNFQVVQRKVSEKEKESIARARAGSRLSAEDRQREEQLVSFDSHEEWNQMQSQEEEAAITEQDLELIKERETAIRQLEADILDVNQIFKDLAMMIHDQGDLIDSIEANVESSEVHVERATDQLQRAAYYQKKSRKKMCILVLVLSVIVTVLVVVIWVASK
# UniProt Q9DCP2, whole entry: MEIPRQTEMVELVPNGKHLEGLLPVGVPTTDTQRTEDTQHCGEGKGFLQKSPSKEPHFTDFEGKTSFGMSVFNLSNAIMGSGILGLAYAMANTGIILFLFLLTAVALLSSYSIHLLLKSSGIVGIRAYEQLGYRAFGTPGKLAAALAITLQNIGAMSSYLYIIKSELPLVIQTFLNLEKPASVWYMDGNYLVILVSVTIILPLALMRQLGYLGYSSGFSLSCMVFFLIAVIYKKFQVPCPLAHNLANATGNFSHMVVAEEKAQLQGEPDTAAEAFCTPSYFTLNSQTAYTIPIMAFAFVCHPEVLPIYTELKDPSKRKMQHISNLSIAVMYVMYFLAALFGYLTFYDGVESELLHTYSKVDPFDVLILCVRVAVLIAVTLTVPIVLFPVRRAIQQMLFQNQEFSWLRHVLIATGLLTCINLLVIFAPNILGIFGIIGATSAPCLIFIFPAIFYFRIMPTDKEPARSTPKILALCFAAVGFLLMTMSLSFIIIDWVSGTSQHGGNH
# UniProt Q9DCG6: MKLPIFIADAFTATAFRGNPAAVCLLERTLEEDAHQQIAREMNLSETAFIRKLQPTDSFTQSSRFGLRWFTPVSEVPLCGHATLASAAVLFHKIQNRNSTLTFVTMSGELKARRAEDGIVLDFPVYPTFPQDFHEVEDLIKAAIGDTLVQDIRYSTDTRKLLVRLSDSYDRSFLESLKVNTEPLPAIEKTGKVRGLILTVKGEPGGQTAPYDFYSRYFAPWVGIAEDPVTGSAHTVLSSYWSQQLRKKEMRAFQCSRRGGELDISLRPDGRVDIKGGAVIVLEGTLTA
# UniProt Q9ESC8: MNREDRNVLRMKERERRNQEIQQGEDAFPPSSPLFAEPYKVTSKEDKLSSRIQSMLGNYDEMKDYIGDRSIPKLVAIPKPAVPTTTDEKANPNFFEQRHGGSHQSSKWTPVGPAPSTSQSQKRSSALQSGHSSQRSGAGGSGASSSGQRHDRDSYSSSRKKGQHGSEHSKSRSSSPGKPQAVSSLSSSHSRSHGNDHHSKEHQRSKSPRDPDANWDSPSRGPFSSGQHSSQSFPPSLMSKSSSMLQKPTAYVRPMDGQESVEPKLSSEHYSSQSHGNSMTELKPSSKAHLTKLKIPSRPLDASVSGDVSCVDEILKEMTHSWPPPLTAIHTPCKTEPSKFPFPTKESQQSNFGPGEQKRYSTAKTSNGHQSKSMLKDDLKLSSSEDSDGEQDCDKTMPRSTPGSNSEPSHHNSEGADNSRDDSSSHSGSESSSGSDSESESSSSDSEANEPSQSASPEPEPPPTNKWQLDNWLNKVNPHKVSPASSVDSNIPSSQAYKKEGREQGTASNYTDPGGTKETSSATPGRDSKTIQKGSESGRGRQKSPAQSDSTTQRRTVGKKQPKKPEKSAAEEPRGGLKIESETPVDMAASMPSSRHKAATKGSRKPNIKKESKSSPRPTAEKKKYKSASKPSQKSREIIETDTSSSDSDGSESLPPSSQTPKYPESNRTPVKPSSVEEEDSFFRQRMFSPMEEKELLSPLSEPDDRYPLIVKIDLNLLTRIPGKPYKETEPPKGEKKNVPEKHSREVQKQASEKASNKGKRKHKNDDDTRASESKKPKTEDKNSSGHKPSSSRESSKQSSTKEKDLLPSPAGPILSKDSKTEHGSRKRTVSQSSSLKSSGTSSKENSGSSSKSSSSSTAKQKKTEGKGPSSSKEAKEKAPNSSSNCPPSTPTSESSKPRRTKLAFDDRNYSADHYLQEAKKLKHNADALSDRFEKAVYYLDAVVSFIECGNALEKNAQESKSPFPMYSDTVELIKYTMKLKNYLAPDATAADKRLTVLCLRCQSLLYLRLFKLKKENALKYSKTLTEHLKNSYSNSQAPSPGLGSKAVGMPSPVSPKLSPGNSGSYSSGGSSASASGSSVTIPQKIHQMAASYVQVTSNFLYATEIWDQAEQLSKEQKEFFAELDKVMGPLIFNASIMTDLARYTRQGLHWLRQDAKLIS
# UniProt Q9DCU9: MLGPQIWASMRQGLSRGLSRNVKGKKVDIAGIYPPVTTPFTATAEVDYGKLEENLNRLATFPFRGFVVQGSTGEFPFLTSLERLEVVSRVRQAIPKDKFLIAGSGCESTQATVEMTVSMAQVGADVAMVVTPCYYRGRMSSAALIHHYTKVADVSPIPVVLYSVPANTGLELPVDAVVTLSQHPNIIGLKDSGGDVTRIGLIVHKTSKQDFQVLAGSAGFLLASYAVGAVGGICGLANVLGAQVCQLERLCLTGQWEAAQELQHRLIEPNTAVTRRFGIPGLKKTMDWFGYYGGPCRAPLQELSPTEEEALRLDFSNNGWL
# UniProt Q9QXN3: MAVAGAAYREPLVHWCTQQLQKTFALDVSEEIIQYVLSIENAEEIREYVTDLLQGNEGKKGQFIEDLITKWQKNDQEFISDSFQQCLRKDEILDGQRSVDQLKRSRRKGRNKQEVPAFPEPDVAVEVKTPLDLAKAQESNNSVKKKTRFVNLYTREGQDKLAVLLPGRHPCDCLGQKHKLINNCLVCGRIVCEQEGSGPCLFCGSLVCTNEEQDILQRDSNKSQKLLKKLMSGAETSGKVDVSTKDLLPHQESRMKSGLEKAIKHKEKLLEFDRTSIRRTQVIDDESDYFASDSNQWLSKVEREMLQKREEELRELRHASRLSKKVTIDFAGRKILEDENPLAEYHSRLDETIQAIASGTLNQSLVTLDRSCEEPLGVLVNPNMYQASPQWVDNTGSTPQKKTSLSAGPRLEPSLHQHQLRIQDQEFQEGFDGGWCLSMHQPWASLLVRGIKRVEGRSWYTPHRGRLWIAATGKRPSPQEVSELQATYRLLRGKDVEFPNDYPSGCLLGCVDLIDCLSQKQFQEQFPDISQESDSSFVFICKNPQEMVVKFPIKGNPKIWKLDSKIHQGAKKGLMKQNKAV
# UniProt Q9JIA7: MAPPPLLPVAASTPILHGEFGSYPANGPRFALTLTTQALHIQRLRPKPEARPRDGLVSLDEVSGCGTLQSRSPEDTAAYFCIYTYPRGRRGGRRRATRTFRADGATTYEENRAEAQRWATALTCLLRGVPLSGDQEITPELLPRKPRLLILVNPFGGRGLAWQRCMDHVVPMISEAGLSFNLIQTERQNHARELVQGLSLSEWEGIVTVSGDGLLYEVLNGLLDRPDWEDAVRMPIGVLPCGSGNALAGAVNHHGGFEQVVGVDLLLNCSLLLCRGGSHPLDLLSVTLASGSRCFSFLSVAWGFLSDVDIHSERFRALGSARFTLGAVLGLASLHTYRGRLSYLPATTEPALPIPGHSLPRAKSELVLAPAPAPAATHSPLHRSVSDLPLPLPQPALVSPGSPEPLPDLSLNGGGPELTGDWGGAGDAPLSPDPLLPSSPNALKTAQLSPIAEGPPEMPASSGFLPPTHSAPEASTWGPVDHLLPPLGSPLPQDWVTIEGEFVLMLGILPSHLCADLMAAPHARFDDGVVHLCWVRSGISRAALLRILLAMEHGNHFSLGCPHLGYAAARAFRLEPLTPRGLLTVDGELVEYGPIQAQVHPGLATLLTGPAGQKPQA
# UniProt Q9EPR2: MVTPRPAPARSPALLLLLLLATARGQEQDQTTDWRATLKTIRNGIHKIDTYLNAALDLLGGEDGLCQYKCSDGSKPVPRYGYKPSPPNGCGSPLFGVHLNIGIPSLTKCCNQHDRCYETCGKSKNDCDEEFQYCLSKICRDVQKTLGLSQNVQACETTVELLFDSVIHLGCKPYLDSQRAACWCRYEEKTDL
# Some of the results follow. Most entries show no effect beyond the scatter of the controls.
# Compound: CN[C@@H]1C[C@H]2O[C@@](C)([C@@H]1OC)n1c3ccccc3c3c4c(c5c6ccccc6n2c5c31)C(=O)NC4 [staurosporine]
# Assay: log2 fold change of pooled soluble protein (PISA), ligand vs vehicle (log2 ratio); higher = more thermally stabilized
# Conditions: ligand concentration: 20 uM; assay format: PISA pool 52.9/55.5/58.6 C
row,Target,log2 fold change of pooled soluble protein
1,UniProt Q9QYB1,0.0819
2,UniProt Q9EQQ9,-0.152
3,UniProt Q9DCB8,-0.083
4,UniProt Q9JK92,-0.00872
5,UniProt Q9QY01,0.0257
6,UniProt Q9EPT5,0.00447
7,UniProt Q9DCM0,-0.0335
8,UniProt Q9JIM1,0.389
9,UniProt Q9JMD0,0.167
10,UniProt Q9JMD3,0.207
11,UniProt Q9NYQ2,-0.492
12,UniProt Q9JI59,-0.00292
13,UniProt Q9JK48,0.2
14,UniProt Q9EPU4,-0.235
15,UniProt Q9ESW4,-0.0732
16,UniProt Q9ER00,-0.0657
17,UniProt Q9DCP2,0.0373
18,UniProt Q9DCG6,-0.0036
19,UniProt Q9JI75,-0.158

# Quoted at random: three records from the list, in no set order.
row,Target,log2 fold change of pooled soluble protein
5,UniProt Q9QY01,0.0257
7,UniProt Q9DCM0,-0.0335
14,UniProt Q9EPU4,-0.235

# More entries follow.

row,Target,log2 fold change of pooled soluble protein
1,UniProt Q9ES52,-0.135
2,UniProt Q9DCZ1,0.11
3,UniProt Q9ERI5,-0.133
4,UniProt Q9DCS2,-0.143
5,UniProt Q9QWR8,0.064
6,UniProt Q9ES97,-0.0771
7,UniProt Q9ET22,-0.0213
8,UniProt Q9JKS5,-0.11
9,UniProt Q9ESC8,-0.237
10,UniProt Q9DCU9,0.0298
11,UniProt Q9EQS3,0.157
12,UniProt Q9QXN3,0.118
13,UniProt Q9ESU6,0.0238
14,UniProt Q9QWW1,-0.00632
15,UniProt Q9JIA7,0.167
16,UniProt Q9JLH8,0.061
17,UniProt Q9ESX5,0.0684
18,UniProt Q9EPR2,-0.347
